Among the data in PubChem BioAssay AID2685 (National Center for Advancing Translational Sciences (NCATS), 2010) are cell number change and AC50 values, retold here.

Each structure is given as a SMILES string. This is one part of the list. Further columns of the screen follow, without active or inactive calls. Compounds called inactive in the main read-out are mostly missing here. Words in brackets tell the shape of the fitted curve; partial curves, single points and poor fits give uncertain potencies.

As usually defined, the AC50 is the concentration giving half of the maximal activity seen. Lower therefore signals greater potency.

This assay is described as follows: qHTS Assay for Lipid Storage Modulators in Drosophila S3 Cells.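 As to cell number change: cells counted by Cell Tracker Red CMTPX staining in the red channel.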 The conditions noted are these: BODIPY lipid droplet fluorescence, 18-24 h; for cell number change: measured here: cell count max response, cells fed with added oleic acid. The method in brief:
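Drosophila S3 cells loaded with oleic acid (400 uM, as added) and compounds at several concentrations; lipid droplets imaged by 488-nm laser-scanning cytometry, 500–530 nm intensity and object ratio to cell channel. Percent activity normalized to 20 uM Triacsin C.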
In general terms: qHTS replaces the single test concentration by a dilution series.

Setting [1] is: measured here: lipid fluorescence (Fed channel) AC50, cells fed with added oleic acid.
Setting [2] is: measured here: cell number channel AC50, cells fed with added oleic acid.

For the compound `Cc1ccc(-c2nnc(SCC(=O)NC3CCCc4ccccc43)n2N)cc1` (stereo unspecified), the cell number change is -18.6%. In addition, under setting [1], the AC50 was 3.26 µM [falling, partial curve].

As for `CN(C(=O)COC(=O)c1cccc(S(=O)(=O)N2CCOCC2)c1)C1CCS(=O)(=O)C1` (stereo unspecified), the cell number change is -3.95%.

On to `Cc1cc(C)c(S(=O)(=O)NC(CC(=O)O)c2cccc([N+](=O)[O-])c2)c(C)c1` (stereo unspecified), for which the cell number change is -21.1%. In addition, the AC50 under setting [1] is 29.1 µM [falling, single point].

As to `O=C(Cc1ccccc1)NCC(=O)N1CCCCC1`, the cell number change is -13.2%. The AC50 under setting [2] was 0.0231 µM [falling, full curve]. Besides, the AC50 under setting [1] is 0.00517 µM [falling, full curve, poor fit].

`COc1cccc(C(=O)NNC(=O)C(=O)Nc2ccc(C)cc2)c1`: the cell number change is 27.4%. Also, the half-maximal activity concentration (AC50) under setting [2] was 0.13 µM [rising, full curve, poor fit].

Regarding `[O-]/C(=C(\C(=S)Nc1ccc(Cl)cc1)[n+]1ccccc1)c1ccc(OC(F)F)cc1`, the cell number change is -23.7%. The AC50 under setting [1] was 29.1 µM [falling, single point].

With `Cc1csc(NC(=O)CSc2nccn2Cc2ccco2)n1`, the cell number change is -34.6%. For the same compound, the AC50 under setting [1] was 20 µM [falling, single point].

As for `Cc1cc2sc(NC(=O)c3ccco3)nc2cc1Cl`, the cell number change is -6.91%. The AC50 under setting [1] was 0.082 µM [rising, full curve, poor fit].

Consider `CN1CCN(C(=O)c2ccc(-n3cccc3)cc2)CC1`, for which the cell number change is 27%. Further, the AC50 under setting [1] is 23.1 µM [rising, partial curve, poor fit].

With `COC(=O)c1sccc1NC(=O)Cn1nnc(-c2ccccc2C)n1`, the AC50 is 6.51 µM [rising, single point] under setting [2] and 6.51 µM [rising, single point] under setting [1].

With `COc1ccc(OC)c(/C=C/c2[nH]c(=O)[nH]c(=O)c2[N+](=O)[O-])c1`, the cell number change is -19.6%. Under setting [1], the AC50 is 23.1 µM [falling, single point].

With `COCCCn1c(C(=O)NCCN2CCOCC2)cc2c(=O)n3cccc(C)c3nc21`, the cell number change was 13.8%. Besides, the AC50 under setting [2] was 0.164 µM [rising, full curve, poor fit].

Turning to `CCCCC[C@H](O)/C=C/[C@@H]1[C@@H](C/C=C\CCCC(=O)O)[C@@H](O)C[C@H]1O`, the cell number change worked out at 20.5%. The AC50 under setting [1] was 32.6 µM [falling, single point].

In the case of `CCn1nnnc1SCC(=O)N(C1CCCCC1)C1CCCCC1`, the cell number change was found to be 12.4%. For the same compound, the half-maximal activity concentration (AC50) under setting [1] was 0.00461 µM [rising, full curve, poor fit].

Consider `CC(C)OCCCNC(=O)c1cccc(NC(=O)c2ccccc2)c1`, for which the cell number change worked out at 16.8%. Moreover, the AC50 under setting [1] is 0.92 µM [rising, full curve].

`COc1ccc(CCNC(=O)/C(C#N)=C/c2cccc(OCc3ccccc3)c2)cc1OC`: the cell number change is -25%. Also, the AC50 under setting [1] was 29.1 µM [falling, single point].

In the case of `CCCCn1c(SCC(=O)N2CCOCC2)nc2ccccc2c1=O`, the cell number change was found to be 18.9%. Further, the concentration at half-maximal activity (AC50) under setting [1] is 11.6 µM [falling, single point].

With `COc1ccc(CCN2CC(C(=O)O)CC2=O)cc1OC` (stereo unspecified), the cell number change is -7.64%. Under setting [1], the AC50 is 0.058 µM [falling, full curve, poor fit].

On to `CN(C)C1=NC[C@H](Cc2ccccc2)N1CC1CCCC1`, for which the cell number change was 24.8%. Also, the AC50 under setting [1] is 0.58 µM [rising, single point].

For the compound `NC(=O)C1CCN(C(=O)CC(c2ccccc2)c2ccccc2)CC1`, the cell number change was 2.65%. Besides, the concentration at half-maximal activity (AC50) under setting [1] was 6.51 µM [rising, single point].

Take `CSc1ccc(CN2CCCCCC2)cc1`: the cell number change stood at 8.03%. Besides, the AC50 under setting [1] is 0.651 µM [rising, full curve, poor fit].

As for `CCOC(=O)[C@H]1[C@H]2COc3ccc(Cl)cc3[C@@H]2N2C(=O)CN(Cc3ccc(Cl)cc3)C(=O)[C@@]12C`, the cell number change came out at 6.08%.

In the case of `CCOC(=O)c1[nH]c2ccccc2c1NC(C)=O`, the cell number change is -4.25%. Further, the AC50 under setting [1] is 29.1 µM [rising, single point].

Take `Cc1[nH]c2ccc(-c3n[nH]c(=S)n3Cc3ccccc3)cc2c1C`: the cell number change stood at 5.92%. Under setting [2], the AC50 is 0.411 µM [rising, full curve, poor fit]. Further, the AC50 under setting [1] was 0.082 µM [rising, full curve, poor fit].

`Cc1ccc(S(=O)(=O)n2nc(OC(=O)c3ccccc3F)cc2N)cc1`: the cell number change was found to be 14.4%.

As to `O=C(NC1CCCCC1)C1CCN(S(=O)(=O)c2cccc3nonc23)CC1`, the cell number change is 148%. Moreover, the AC50 under setting [2] is 23.1 µM [rising, partial curve]. Besides, under setting [1], the AC50 was 29.1 µM [rising, single point].

With `CCCN(CC(=O)Nc1ccccc1C)C(=O)CCN1C(=O)c2cccc([N+](=O)[O-])c2C1=O`, the cell number change came out at 40.7%. The AC50 under setting [2] was 16.4 µM [rising, partial curve, poor fit].

Regarding `O=C(c1ccccc1)N1CCN(C(=O)N2CCCCC2)CC1`, the cell number change was -2.53%.

`COc1cc(C(=O)NNC(=S)NC(=O)c2ccc(Cl)cc2)cc(OC)c1OC`: the cell number change was -3.65%.

For the compound `O=C(CCN1C(=O)/C(=C/c2ccccc2F)SC1=S)N[C@@H](CO)Cc1ccccc1`, the cell number change was -59.7%. Besides, the AC50 under setting [2] is 23.1 µM [falling, single point].

Take `O=C(Oc1cccnc1)c1cc(S(=O)(=O)N2CCOCC2)ccc1Cl`: the cell number change was -50.4%. Moreover, under setting [2], the AC50 was 13 µM [falling, partial curve, poor fit]. Further, under setting [1], the AC50 is 4.11 µM [falling, partial curve].

As for `CC1=C(C(=O)c2ccccc2)C(c2cn(-c3ccccc3)nc2-c2ccc(Cl)cc2)NC(=S)N1` (stereo unspecified), the cell number change was -74.9%. Under setting [2], the AC50 was 23.1 µM [falling, partial curve]. Moreover, the AC50 under setting [1] was 2.06 µM [falling, partial curve, poor fit].

For the compound `COC(=O)C1=CO[C@@H](O)C2C(CO)=CCC12` (stereo partly specified), the cell number change is -2.77%. For the same compound, the AC50 under setting [1] was 29.1 µM [rising, single point].

For the compound `COc1ccc2nc(C)cc(NCc3cccc(C(F)(F)F)c3)c2c1`, the cell number change is -30.2%. Further, the AC50 under setting [2] is 6.51 µM [falling, partial curve, poor fit].

Turning to `COc1ccc(-c2n[nH]c3c2CN(C(=O)c2ccc(OC)c(OC)c2)CC3)cc1`, the cell number change was -25.1%. In addition, the AC50 under setting [1] was 6.51 µM [rising, single point].

On to `O=C(COc1ccc(Cl)cc1)N1CCN(C(=O)c2ccccc2F)CC1`, for which the cell number change was -6.41%.

On to `COc1ccc(C(=O)NNC(=O)C(NC(=O)c2ccccc2NC(=O)c2ccco2)C(C)C)cc1` (stereo unspecified), for which the cell number change was -100%. Further, the AC50 under setting [2] was 29.1 µM [falling, single point]. Besides, under setting [1], the AC50 is 1.3 µM [rising, full curve].

Regarding `O=C(/C=C/c1cccc(Cl)c1)NCCN1CCOCC1`, the cell number change amounted to 13.9%. Moreover, under setting [2], the AC50 was 0.461 µM [rising, full curve, poor fit]. In addition, the concentration at half-maximal activity (AC50) under setting [1] was 0.517 µM [rising, single point].

Regarding `COc1ccc(C(CNc2ccc(S(=O)(=O)N3CCCC3)cc2[N+](=O)[O-])N2CCCC2)cc1` (stereo unspecified), the cell number change was -16.7%. Besides, the AC50 under setting [2] is 0.731 µM [falling, single point].

Regarding `CC1CC(C)CN(C(=O)Cn2nnc(-c3ccccc3)n2)C1` (stereo unspecified), the cell number change is 27.5%.

Turning to `Cc1cccc(N=N/C(=C\O)C(=O)c2ccc(Br)cc2)c1`, the cell number change was -64.5%. For the same compound, under setting [2], the AC50 is 2.06 µM [rising, partial curve]. Moreover, under setting [1], the AC50 is 1.64 µM [rising, partial curve].

`O=C(CCC(=O)N(CC(=O)NC1CCCC1)Cc1ccccc1)Nc1nccs1`: under setting [1], the AC50 was 5.17 µM [falling, full curve, poor fit].

On to `Cc1cccc(-c2n[nH]c(=S)n2/N=C/c2ccc(C)o2)c1`, for which the cell number change was -35.3%. Also, under setting [2], the AC50 is 8.2 µM [falling, partial curve, poor fit].

Take `CCOc1ccc(NS(=O)(=O)c2ccc(C(=O)N3CCCCC3)cc2)cc1`: the cell number change is 41.9%. Besides, under setting [1], the AC50 is 35.5 µM [falling, single point].

Consider `O=[N+]([O-])c1cccc2nc(-c3ccccc3)c(-c3ccccc3)nc12`, for which the cell number change is -26.8%. Moreover, the AC50 under setting [1] was 0.231 µM [falling, full curve].

As to `CC12C=CC3(O1)C(C(=O)N(c1cccnc1)C3C(=O)NC1CCCCC1)C2C(=O)Nc1ccccc1` (stereo unspecified), the cell number change was -3.1%. Further, under setting [1], the half-maximal activity concentration (AC50) was 0.058 µM [rising, full curve, poor fit].

Consider `CCOc1cccc(OCCCCN2CCOCC2)c1`, for which the cell number change came to 3.01%. For the same compound, under setting [1], the AC50 was 10.3 µM [rising, partial curve, poor fit].

Turning to `O=C(CCc1ccc(S(=O)(=O)N2CCOCC2)cc1)Nc1ccc2ccccc2c1`, the cell number change turned out to be 18.1%. Moreover, the AC50 under setting [2] was 0.0058 µM [rising, full curve, poor fit].

As to `CC1(c2ccncc2)Nc2ccccc2-c2nc3ccccc3n21` (stereo unspecified), the cell number change is 182%. The AC50 under setting [2] was 0.259 µM [rising, full curve, poor fit]. Also, under setting [1], the concentration at half-maximal activity (AC50) was 0.259 µM [rising, partial curve, poor fit].

`Cc1nn(CC(=O)Nc2c(C)n(C)n(-c3ccccc3)c2=O)c(C)c1[N+](=O)[O-]`: the cell number change came out at 11.1%. Under setting [1], the concentration at half-maximal activity (AC50) is 0.58 µM [rising, single point].

Regarding `O=C(Cc1ccc(Br)cc1)N1CCCCCC1`, the cell number change was -25.1%. Besides, the AC50 under setting [2] was 3.26 µM [falling, single point]. Under setting [1], the AC50 was 23.1 µM [falling, single point].

Regarding `O=C(/C=C/c1cn(-c2ccccc2)nc1-c1cccnc1)N1CCCCC1`, the cell number change is -41.1%. The AC50 under setting [1] is 29.1 µM [falling, single point].

Take `CC(/C=C/c1ccccc1)=N/NC(=O)c1cc([N+](=O)[O-])cc([N+](=O)[O-])c1`: the cell number change was -8.84%.

Take `COc1ccccc1NS(=O)(=O)c1ccc(OC)c(OC)c1`: the cell number change turned out to be 58.5%. Besides, under setting [2], the AC50 is 29.1 µM [rising, single point]. In addition, under setting [1], the AC50 was 29.1 µM [rising, single point].

`COc1ccc(CCNC(=O)c2cnc3scc(C)n3c2=O)cc1OC`: the cell number change was -23.1%. Moreover, the concentration at half-maximal activity (AC50) under setting [1] was 8.2 µM [falling, partial curve, poor fit].

For the compound `N#C/C(=C\c1c(N2CCCCC2)nc2ccccn2c1=O)C(=O)NC1CCS(=O)(=O)C1` (stereo unspecified), the cell number change was found to be 11.7%. Also, the half-maximal activity concentration (AC50) under setting [1] was 23.1 µM [rising, partial curve].

In the case of `COC(=O)c1ccsc1NC(=O)CCS(=O)(=O)c1ccccc1`, the cell number change was -5.89%. In addition, the AC50 under setting [1] is 0.058 µM [falling, full curve, poor fit].
